We go through one substance from publication PMC6071395.

By UniProt entry, the sequences of proteins in these tests, tags left out. Where a name states a change or a piece, a line headed by the entry shows the natural chain unless it says otherwise.
UniProt Q15910: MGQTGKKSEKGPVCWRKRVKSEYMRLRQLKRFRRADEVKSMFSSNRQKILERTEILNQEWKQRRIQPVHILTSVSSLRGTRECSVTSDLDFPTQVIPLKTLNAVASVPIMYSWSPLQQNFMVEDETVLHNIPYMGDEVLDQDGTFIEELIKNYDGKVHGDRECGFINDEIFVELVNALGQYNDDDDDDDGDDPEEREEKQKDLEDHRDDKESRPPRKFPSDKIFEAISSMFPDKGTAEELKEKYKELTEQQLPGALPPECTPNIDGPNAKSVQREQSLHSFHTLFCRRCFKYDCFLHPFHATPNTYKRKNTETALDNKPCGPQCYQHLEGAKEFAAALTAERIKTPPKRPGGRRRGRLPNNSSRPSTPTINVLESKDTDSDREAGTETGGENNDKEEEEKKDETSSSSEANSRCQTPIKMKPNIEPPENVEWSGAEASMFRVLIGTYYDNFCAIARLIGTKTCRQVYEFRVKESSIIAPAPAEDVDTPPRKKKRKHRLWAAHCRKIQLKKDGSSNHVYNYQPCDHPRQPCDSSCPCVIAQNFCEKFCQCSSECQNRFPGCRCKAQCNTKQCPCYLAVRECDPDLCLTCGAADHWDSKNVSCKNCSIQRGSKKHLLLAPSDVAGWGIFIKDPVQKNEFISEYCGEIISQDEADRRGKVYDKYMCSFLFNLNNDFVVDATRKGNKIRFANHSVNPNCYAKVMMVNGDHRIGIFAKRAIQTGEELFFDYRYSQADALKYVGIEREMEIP
UniProt P12004: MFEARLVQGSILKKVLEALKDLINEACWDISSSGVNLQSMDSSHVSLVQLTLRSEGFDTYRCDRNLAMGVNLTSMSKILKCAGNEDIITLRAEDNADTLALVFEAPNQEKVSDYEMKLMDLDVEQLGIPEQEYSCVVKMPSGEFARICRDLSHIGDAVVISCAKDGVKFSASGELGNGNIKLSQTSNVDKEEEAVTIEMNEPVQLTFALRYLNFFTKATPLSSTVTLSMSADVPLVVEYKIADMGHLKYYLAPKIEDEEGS

This experiment concerns the target FLAG-tagged full-length EZH2 with mutations of conserved PIP box amino acids (EZH2∆PIP) (UniProt Q15910). The experiment is described as follows: co-IP; 293T cells transfected with FLAG-tagged EZH2, EZH2∆SET or EZH2∆PIP; IP with FLAG antibody, blot for endogenous PCNA; IgG as control.

No constants are given. Whether binding was seen depends on the method and setting. Binding seen in cells or lysates may run through a third protein.

Turning to “Proliferating cell nuclear antigen (PCNA), endogenous (from UniProt P12004 1-261)”, the binding result is “no binding”.
